This note sets out measurements from patent US20230287070A1, “NOVEL TUMOR-SPECIFIC ANTIGENS FOR ACUTE MYELOID LEUKEMIA (AML) AND USES THEREOF” (UNIVERSITE DE MONTREAL, priority 2020, published 2023).

The data set deals with AML specimens vs MPCs. Description: Fold change of RNA expression between AML specimens and MPCs. Set-up: species or system human.
KLLSLTIYK (listed as Homo sapiens): the AML/MPC was 0.3604. With KLNQAFLVL (listed as Homo sapiens), the AML/MPC turned out to be 1.82. To KLQDKEIGL (listed as Homo sapiens) belongs 343.936; to KPMPTKVVF (listed as Homo sapiens), 20.75. Sequence KTFVQQKTL (listed as Homo sapiens) returned an AML/MPC of 261.178. Consider “LELISFLPVL (listed as Homo sapiens) [LELlSFLPVL]”, for which the AML/MPC is 0.08993. For LGGAWKAVF (listed as Homo sapiens), the AML/MPC was 1.398. Sequence LGISLTLKY (listed as Homo sapiens) returned an AML/MPC of 6.313. In turn, LHNEKGLSL (listed as Homo sapiens) showed an AML/MPC of 1.219. To LLDNILQSI (listed as Homo sapiens) belongs 2.345; to LLLPESPSI (listed as Homo sapiens), 0.1781.

Regarding LLSRGLLFRI (listed as Homo sapiens), the AML/MPC is listed as 0.3377.

In turn, LNHLRTSI (listed as Homo sapiens) returned an AML/MPC of 0.2756.

In turn, LPIASASLL (listed as Homo sapiens) had an AML/MPC of 0.9415.

Sequence LPRNKPLL (listed as Homo sapiens) registered an AML/MPC of 6.213. The sequence LPSFSHFLLL (listed as Homo sapiens) yielded an AML/MPC of 2.751. LPSFSRPSGII (listed as Homo sapiens) displayed an AML/MPC of 2.059. The sequence LPSHSLLI (listed as Homo sapiens) gave an AML/MPC of 2.068. LRKAVDPIL (listed as Homo sapiens): the AML/MPC is 3.901.

For the sequence LRSQILSY (listed as Homo sapiens), the AML/MPC is 33.63. The sequence LSASHLSSL (listed as Homo sapiens) returned an AML/MPC of 2.204. With LSDRQLSL (listed as Homo sapiens), the AML/MPC came to 1.037. The sequence LSHPAPSSL (listed as Homo sapiens) registered an AML/MPC of 2.061. Take LSSRLPLGK (listed as Homo sapiens): the AML/MPC is recorded as 3.016. Take LSTGHLSTV (listed as Homo sapiens): the AML/MPC is reported as 45.7274. As for LSWGYFLFK (listed as Homo sapiens), the AML/MPC was 2.097. Consider LTDRIYLTL (listed as Homo sapiens), for which the AML/MPC is given as 203.504. For LTSISIRPV (listed as Homo sapiens), the AML/MPC came to 1.503.

LTVPLSVFW (listed as Homo sapiens) registered an AML/MPC of 1.193. Take LYFLGHGSI (listed as Homo sapiens): the AML/MPC turned out to be 0.2549. To LYIKSLPAL (listed as Homo sapiens) belongs 19.06. LYPSKLTHF (listed as Homo sapiens) showed an AML/MPC of 5.628.

Take MIGIKRLL (listed as Homo sapiens): the AML/MPC is listed as 2.454. Take NFCMLHQSI (listed as Homo sapiens): the AML/MPC was 0.5484.

NILKKTVL (listed as Homo sapiens) yielded an AML/MPC of 0.9955. To NLKEKKALF (listed as Homo sapiens) belongs 8.968; to NLKKREIL (listed as Homo sapiens), 1.722. Sequence NPKLKDIL (listed as Homo sapiens) showed an AML/MPC of 1.979. In the case of NPLQLSLSI (listed as Homo sapiens) it was 0.4889. In turn, NQKKVRIL (listed as Homo sapiens) displayed an AML/MPC of 0.4568. The sequence NTSHLPLIY (listed as Homo sapiens) came in with an AML/MPC of 405.694. In turn, NVNRPLTMK (listed as Homo sapiens) gave an AML/MPC of 12.37. With NVSSHVHTV (listed as Homo sapiens), the AML/MPC was found to be 7.343.

For the sequence PAPPHPAAL (listed as Homo sapiens), the AML/MPC came to 13.05. The sequence PARPAGPL (listed as Homo sapiens) returned an AML/MPC of 0.831.

Turning to PFPLVQVEPV (listed as Homo sapiens), the AML/MPC turned out to be 0.4064. The sequence PLPIVPAL (listed as Homo sapiens) had an AML/MPC of 0.6021. PPRPLGAQV (listed as Homo sapiens) had an AML/MPC of 14.35.

Take PRGFLSAL (listed as Homo sapiens): the AML/MPC is 4.511.

In the case of QIKTKLLGSL (listed as Homo sapiens), the AML/MPC is listed as 1.405. Sequence REPYELTVPAL (listed as Homo sapiens) came in with an AML/MPC of 8.664. As for RLEVRKVIL (listed as Homo sapiens), the AML/MPC is recorded as 0.6197. As for RLVSSTLLQK (listed as Homo sapiens), the AML/MPC came to 1.091.

Sequence RMVAYLQQL (listed as Homo sapiens) registered an AML/MPC of 1.996. To RPRGPRTAP (listed as Homo sapiens) belongs 29.95; to RQISVQASL (listed as Homo sapiens), 0.1431.

Sequence RSASSATQVHK (listed as Homo sapiens) had an AML/MPC of 21.15. For the sequence RTPKNYQHW (listed as Homo sapiens), the AML/MPC is 53.72. As for RTQITKVSLKK (listed as Homo sapiens), the AML/MPC is 2051.04. The sequence RYLANKIHI (listed as Homo sapiens) displayed an AML/MPC of 64.5122. In the case of SASSATQVHK (listed as Homo sapiens) it was 22.05. SEAEAAKNAL (listed as Homo sapiens) yielded an AML/MPC of 15.85. Sequence SGKLRVAL (listed as Homo sapiens) registered an AML/MPC of 277.184. Sequence SIQRNLSL (listed as Homo sapiens) came in with an AML/MPC of 19.19. Turning to SLDLLPLSI (listed as Homo sapiens), the AML/MPC is 17.24. For SLLIIPKKK (listed as Homo sapiens), the AML/MPC is listed as 5.216. Turning to SLLSGLLRA (listed as Homo sapiens), the AML/MPC is listed as 308.14.

For the sequence SLQILVSSL (listed as Homo sapiens), the AML/MPC amounted to 6.71. SLREPQPAL (listed as Homo sapiens) yielded an AML/MPC of 69.21. The sequence SLWGQPAEA (listed as Homo sapiens) registered an AML/MPC of 249.8.

In turn, SNLIRTGSH (listed as Homo sapiens) returned an AML/MPC of 0.8344.

In the case of SPADHRGYASL (listed as Homo sapiens), the AML/MPC turned out to be 28.51. Sequence SPARALPSL (listed as Homo sapiens) registered an AML/MPC of 1.404. To SPQSAAAEL (listed as Homo sapiens) belongs 59.62; to SPQSGPAL (listed as Homo sapiens), 0.5407. SPVVHQSL (listed as Homo sapiens) came in with an AML/MPC of 52.98. The sequence SPVVRVGL (listed as Homo sapiens) returned an AML/MPC of 22.15. To SPYRTPVL (listed as Homo sapiens) belongs 8.928; to SRIHLVVL (listed as Homo sapiens), 60.2848; to SSSPVRGPSV (listed as Homo sapiens), 113.1364. STFSLYLKK (listed as Homo sapiens) had an AML/MPC of 98.973. On to SVFAGVVGV (listed as Homo sapiens), for which the AML/MPC is 8.7. For SVQLLEQAIHK (listed as Homo sapiens), the AML/MPC is 56.53. Consider SVYKYLKAK (listed as Homo sapiens), for which the AML/MPC amounted to 8068.72. The sequence SYSPAHARL (listed as Homo sapiens) came in with an AML/MPC of 8.837. Regarding THGSEQLHL (listed as Homo sapiens), the AML/MPC was determined as 3.293. Turning to TILPRILTL (listed as Homo sapiens), the AML/MPC is 0.6039. Take TISECPLLI (listed as Homo sapiens): the AML/MPC was determined as 1.644.

For the sequence TLKLKKIFF (listed as Homo sapiens), the AML/MPC is 2.527. TLNQGINVYI (listed as Homo sapiens) displayed an AML/MPC of 9.544. Turning to TLRSPGSSL (listed as Homo sapiens), the AML/MPC came out at 11.27. In the case of TPGRSTQAI (listed as Homo sapiens) it was 8.315; in that of TQAPPNVVL (listed as Homo sapiens), 11.86; in that of TQVSMAESI (listed as Homo sapiens), 0.7599. TSRLPKIQK (listed as Homo sapiens) gave an AML/MPC of 0.5367. In the case of TVEEYLVNI (listed as Homo sapiens), the AML/MPC came out at 1.912. Sequence TVIRIAIVNK (listed as Homo sapiens) showed an AML/MPC of 43568.4. On to TVPGIQRY (listed as Homo sapiens), for which the AML/MPC came out at 1.304.

Sequence TVRGDVSSL (listed as Homo sapiens) came in with an AML/MPC of 9.689.

For VILIPLPPK (listed as Homo sapiens), the AML/MPC was 0.2623. Regarding VLKEKNASL (listed as Homo sapiens), the AML/MPC is listed as 75.9224. In turn, VLVPYEPPQV (listed as Homo sapiens) showed an AML/MPC of 641.852.

VPAPAQAI (listed as Homo sapiens) gave an AML/MPC of 0.08564.

As to VSFPDVRKV (listed as Homo sapiens), the AML/MPC was found to be 9.648. VSRNYVLLI (listed as Homo sapiens) registered an AML/MPC of 4.908. As to VTDLLALTV (listed as Homo sapiens), the AML/MPC is listed as 10.81. In turn, VTFKLSLF (listed as Homo sapiens) displayed an AML/MPC of 0.89.

The sequence VVFDKSDLAKY (listed as Homo sapiens) yielded an AML/MPC of 9.216.
